The text below walks through data of patent US20050058645A1.

No constants are given. Whether binding was seen depends on the method and setting.

The assay deals with B-gal. Put plainly: Western blot of lysates of transfected COS cells after SDS-PAGE, probed with mAb 1D9. A general note: Immunoblotting shows a protein as a band on a membrane.

B1: murine monoclonal antibody 1D9 (antibody, IgG1, V domains shown)
VH: EVKLVESGGGLVKPGGSLKLSCAASGFTFSGYGMSWVRQTPEKRLEWVATISGLGGYTYYPDSVKGRFTISRDNAKNTLYLQMSSLRSDDTAFYYCARRFYGDYVGAMDYWGQGTSVTVSS
VL: DILMTQAAFSNPVTLGTSASISCRSSKSLLHSNGITYLYWYLQKPGQSPQLLIYQMSNLASGVPDRFSCSGSGTDFTLSISRVEAEDVGFYYCAQNLELPFTFGSGTKLEIE
Regarding B1, the binding result was “no binding”.
